Results taken from article PMC6906086.
Results are given in words; binding and its absence hold for the method and conditions named.

Biological target: Lsr2 DNA-binding domain, wild type (Mycobacterium tuberculosis H37Rv) (UniProt P9WIP7)
Assay: NMR solution structure and 15N relaxation; both purified

**Q.** How did the binding turn out when “Lsr2 DNA-binding domain, wild type (from UniProt P9WIP7) (domain or fragment)” was run?
**A.** Its binding is “no binding (tested: 0.5mM)”.
